Data source: PubChem BioAssay AID652243 (Drosophila RNAi Screening Center, 2013)

- Aim: 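Fly regulators of androgen-dependent reporter output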 (primary screen)
- Cell system: Drosophila S2R+ cells
- Reagent: long dsRNA against Drosophila genes
- Timing: 72 h (48 h, then 24 h hormone)
- Conditions: synthetic androgen R1881 at 10 nM for 24 h
- Read-out: 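Firefly light from an androgen-responsive reporter and Renilla control light per well, raw and unnormalised, for each of two replicates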
- Reading the numbers: firefly reporter light: higher = more light from androgen-responsive reporter; Renilla control light: higher = more constitutive control signal (cell number, transfection)
- Rule for the call: 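Across duplicate plates, a knock-down whose log firefly/Renilla ratio shifted a set fold down or up from the GFP/LacZ control mean was a hit; the downward cut appears as both 1.5 and 3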
- Meaning of the calls: active = hit: reporter lowered or raised; inactive = no hit
In all, the deposit lists about 24,000 reagents; shown is a random part of those with a known target gene and a result. Of all reagents, 246 (1%) got an active call. 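Plates not normalised; calls are printed but the firefly/Renilla ratio behind them is not deposited; fold cut for lowering reported inconsistently.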 The raw values are shown without normalisation. Entries without a mark were called inactive. Names joined by + are all predicted targets of the reagent. No sequences are given here. Not stated in the record: the amount of reagent.

The opening 3 entries as a preview:
| gene knocked down | PubChem SID | firefly reporter light, replicate 1 | firefly reporter light, replicate 2 | Renilla control light, replicate 1 | Renilla control light, replicate 2 |
| --- | --- | --- | --- | --- | --- |
| CG10514 (GeneID 43052) | SID104194041 | 1.12e5 | 1.47e5 | 1.67e6 | 1.71e6 |
| CG10514 (GeneID 43052) | SID104206642 | 3.71e5 | 4.65e5 | 1.53e6 | 1.77e6 |
| glec (GeneID 42571) | SID104196750 | 2.37e5 | 1.79e5 | 2.95e6 | 3.58e6 |

The list itself, from the first entry:
| gene knocked down | PubChem SID | firefly reporter light, replicate 1 | firefly reporter light, replicate 2 | Renilla control light, replicate 1 | Renilla control light, replicate 2 |
| --- | --- | --- | --- | --- | --- |
| CG10514 (GeneID 43052) | SID104194041 | 1.12e5 | 1.47e5 | 1.67e6 | 1.71e6 |
| CG10514 (GeneID 43052) | SID104206642 | 3.71e5 | 4.65e5 | 1.53e6 | 1.77e6 |
| glec (GeneID 42571) | SID104196750 | 2.37e5 | 1.79e5 | 2.95e6 | 3.58e6 |
| glec (GeneID 42571) | SID104203860 | 5.16e5 | 5.03e5 | 5.99e5 | 5.66e5 |
| CG31676 (GeneID 35351) | SID104182179 | 1.52e5 | 1.73e5 | 1.95e6 | 2.08e6 |
| CG31683 + CG18858 | SID104182495 | 1.67e5 | 2.13e5 | 2.26e6 | 2.38e6 |
| CG18641 (GeneID 33429) | SID104180319 | 96426 | 1.15e5 | 7.45e5 | 5.48e5 |
| CG12420 (GeneID 41249) | SID104194306 | 3.99e5 | 4.16e5 | 2.83e6 | 2.77e6 |
| Tdc1 (GeneID 35573) | SID104184734 | 86601 | 59224 | 1.31e5 | 1.89e5 |
| CG18476 (GeneID 41404) | SID104195073 | 16452 | 46751 | 2.39e5 | 3.26e5 |
| babos (GeneID 37557) | SID104183715 | 1.29e5 | 1.94e5 | 6.39e5 | 7.38e5 |
| babos (GeneID 37557) | SID104184189 | 1.04e6 | 6.80e5 | 1.42e6 | 9.26e5 |
| Prx6a (GeneID 33493) | SID104180357 | 8.57e5 | 9.41e5 | 3.59e6 | 2.57e6 |
| CG8891 (GeneID 33718) | SID104182912 | 1.95e5 | 1.62e5 | 2.11e6 | 1.66e6 |
| CG8891 (GeneID 33718) | SID104206852 | 3.65e5 | 6.38e5 | 1.31e6 | 1.89e6 |
| CG42750 (GeneID 35090) | SID104182811 | 2.42e5 | 1.98e5 | 2.65e6 | 2.22e6 |
| CG42750 (GeneID 35090) | SID104182816 | 1.87e5 | 2.03e5 | 1.62e6 | 1.74e6 |
| CG42750 (GeneID 35090) | SID104201169 | 5.79e5 | 5.51e5 | 2.03e6 | 1.76e6 |
| CG42750 (GeneID 35090) | SID104202575 | 2.58e5 | 3.66e5 | 9.18e5 | 1.12e6 |
| CG42750 (GeneID 35090) | SID104206692 | 3.04e5 | 2.50e5 | 1.62e6 | 1.32e6 |
| CG42750 (GeneID 35090) | SID104207335 | 4.41e5 | 4.15e5 | 1.19e6 | 1.30e6 |
| CG33469 (GeneID 2768832) | SID104202259 | 5.98e5 | 1.03e6 | 1.61e6 | 1.91e6 |
| CG5131 (GeneID 35057) | SID104182609 | 1.44e5 | 1.78e5 | 1.99e6 | 1.74e6 |
| peo (GeneID 47272) | SID104185787 | 1.16e6 | 7.45e5 | 2.49e6 | 1.83e6 |
